According to publication PMC5974925:
Tags and fusion partners may be left off the protein sequences shown.

molecular target: T1, SbbR-His6 (Streptomyces bingchenggensis BC04) (UniProt D7C006); test: EMSA; settings: 0.1-0.2 uM SbbR; EMSA: 20 mM Tris base, 2 mM DTT, 5 mM MgCl2, 0.5 ug calf BSA, 5% glycerol, 20 ul, 10 ng probe, 25 C 25 min (poly[d(I-C)] 500 ng when necessary), pH not stated; recombinant protein; residues 34-239; protein details: C-terminal His6 (pET23b, NdeI/XhoI); probe letters rebuilt from the primers and the genome
T1 sequence (looked up): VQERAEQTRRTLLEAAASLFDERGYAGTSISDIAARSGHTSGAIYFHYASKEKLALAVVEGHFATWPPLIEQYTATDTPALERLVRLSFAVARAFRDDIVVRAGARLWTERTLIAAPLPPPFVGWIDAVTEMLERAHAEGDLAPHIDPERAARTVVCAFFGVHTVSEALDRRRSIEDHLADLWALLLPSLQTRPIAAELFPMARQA

| Sequence | binding result |
| --- | --- |
| ACCAGCAGGCTCAGCAACCGCTGGCCCGCAGGGGCGATCAGCACGGACTGTCCCTCGTATCGAAGTTCGAAACTTCCCATGAGCGACAAATGGGGAAGGTGGTGCAGGCGGTACTCGTCGGAGTGCTTCTGCATTGCGCCTCCTCAGACCACGAAGAAGCCGTCGCGGGCGAAGTGGGAATCCCTGGCGCGGCAGCTCCGGCGGTCCTCGGTGAGGATTGCGCACTTCGCGTCGAAATCCGTGGTGCGCCTTTTGGCGGCTGCCACCTGGGGCTCTGCCGACGCGCGTGCCGCGCTGTATCAGTGCCGCACCTCCCATTGGAACACCGCAAGACTTTTGGCACATCTGCGCGCGGGGGTGACGTCGTGGTGACGAGCCGGTGATCCGGTTCCACCAAGCTCCTCTCAGTGACCTGGCTGGTGACCCGGCACTGGGGACGGCAAAGAGACGAGGGGAGACACCGTGTTCACGCACCGCTTCGCATCCTCACCACCGTTCTGCTGGTCTGCGCGCTTCCATTCGCACCGACGCACCAGAATTCCGACCAAGATCTACGACGGGATGCTGCTGCTTCTCGTCATTCTCGCCGTGGCACACCACTCGCCTGGCCGGGGACTTCTGCTGGCGGCCTTTCTCATGTGCCGCGTCATTGGCCGTCCCCTCGCCCATAATTGGCTGACACCTTCCACGCCCGGCCCTTCCGCGCCCGGCCTCCCGGAATACGGGCGGCACCGATGAGTGCTCCGGCGGTCACGCATCCGACCCGTACCGCAGTCCCGGACGAACGCTCCCAGGTCCTCGGAAGGCTTTGCGACCTCCGGTCCCGAGGCAGGTGGCGGTTCCGACTGGCCCTGCTCGGCCCCGCCTTCGTCGTGGCTGTGGCGT (double strand) [Psbi_08432] | binds |
| ATTGACCAGCGCCTTTCGGACGTACGCCTCCGGATTCTCCCCCGCGATCCGCCGCCACTTCGGCCACACCTTGGCCAGCACCGTCTGCAGCAGATCCTCGGCCAGATGCGCATCCCCGGTGAGCAGCCAGGCCACCCTCAGCAGCCGAGGCCCGCGCGCGGCGACGAACTCCTCGAAGCCGGGCGTCGCGCCCGTCACTGTCGTGTCCTCGCCATGGCGCCCCTGTCCGAACCGTGTCTTTCACACATGGTGAACGCCATGACGCCGGGACGGGGTTGCCTCAAGCCCAGAATCCGCCAACCGGCGGTCAACCAGCACCCCCGCATGGCGATTCGCACGGCCAATTGCCGAGTCAAGAGACTCGATGAAAATCAGCCACGCCAGACTTAATATCGCCAAGAATCACGGCCGACATCGTGCGCGCCAAAGCGGGCAACAAGGGGTACGCTCCTCAATCCACACCCTCAAGCGCGTGACCTGCGTCACAAAAATGTGACAGCTCTGGTCGGCGTGACGCCGCGTGTCGCAAACTCACTGCGATCTTCTGTTAGAAGAATTGCTCACGGGGAACAGCGTTACGGGGGAGCAACAGTGGGTCATCTGTCGATTCAGGTACGCGCTTCCAGATCCAGCGGGTCGCCGGTTTTGAGGCATATCGCCGCTGATATTCACTTAAGATTCAGGAAACCTGGACACCTCGCATTCCAGCACCTCTCCAGGGTGACTCTGTGAATTCCGCCGGGTATCCGCTGTCTCGGCAGCAGCAGACCGTCTGGGCGTCGCAGCAACTCCAGCCAGACGGGGACTCCTACCATGTTCCCGTGGCCTACCGCCTTTCAGGTCACATCGCCGAGAAGGAGCTCGCCGAGGCCATCCGGTCGGTGCTGGGCCGGCACCCCGTGCTGCGTGTGGCGATTCATCAATTATCGAGCGGCGAACTTCGCCAGAGCGTACGCCCCACGCCGGATCGCGTCCTGGATGTAC (double strand) [Psbi_06451] | binds |
| CCGCTCACGCTCGGTCATGCCACCCCACACGCCGAACTCGACGCGGTTGTCCAGCGCGTCGGCAAGGCACTCGGTGCGCACCGGACACCCGGTGCAGACCGCTTTGGCCCTGTTCTGTGCCGCGCCTTGAACAAATAGTTCATCTGGATCAGTCGTGCGACAGGCGGCCTGCGCACTCCAGTCGGTTACCCAGCCCATGCTGGCGCCGTCCTCTCCCGATTCGGAGCTCCCCCACGGCGACAAACGGCATATTCACCGTCGCCAGTTGAGGACGTTACGGAAGGCGGACAGGGTGCAACACCCCCTGCGGGCCCAATCTTGGATGGCCCGAACGGACTATGGGTACGCGGCAGATCACCCAACGGAGTGAGCTGACGACATGCGCGACTTACCGCACAAATAGGGGTAGTTCACCCACTCCAAAAGGGGTGGGACATAACACAAGACAGCAAATGGGGCAGGTCTCATCACTCACTTGAGTGAGAGGGGTGATGGTGCTCGACCGCACCGAAGTGACTGGCGTGAATCAGCGTATGCGAACAGGTGGTCCCCTGTCCGGCGATTCGGCACGTAGGCTGCCCCCATGGGTAACAAGCGTTCGGGCGGAGGTCTGTCCCCCGCTCAGCAGGCCGCGAAGTTCCTCGGCGTCAGCGTGCTCGCGGGA (double strand) [Psbi_05811] | binds |
| GCAACCGCCGGTACAGCTCCGCCGGGTCGGCCTGAAGCTCCTCGGTGTGCATCCGTACGGCGCCGGGGTGCGCCGGGCAGCCGGTGAGAGGCGATGGGCCGTCGACCGGCGAGGGGTGGTGCACGTTCGTCACGCTGTCAACTCCGGGGCGAGGAGGCGGGAAGTCCAGGGAGTATACGTACAGGTGAGCCGGTCGTCAGCGGCTGAACGTCCCACGACAGGTCAGCTCCAGGCCCGCCGCTCCTGGCCGCGGGGGTCGTCGAGCCGGGTCCACTCGGCGTCGATGCGCCGCCGACGAACACCGCGCGGTCCGTTCCGGAGGTGAGGGTCAGCACGGAGGAGCCGGGGGTGTGTCCGGGAGCCGCGTCCAGGCGCAGATCGGCGTCGATCTGGCGGCCGAGCAGCGGCATCAGATAGGTGGCATTGGGAAAGGTGGGGACCCAGTTCCGCCCGTCCAAATAGGTGTTCCGGCGCCGGTGTCGACGAGGATGGTCCTGCCCTCGCTGCGCGGCAGCCAGGTCTGGAGCGCGGAATTCACGATATTGGTCTCGGCATCCAGAAAATGCGGGGTCAGCCAGAGGGCACCGGCTTCCCAGACTTCCTTCGTGCTTTCCTACGAGCGGCCTCGGCGCGCGCGGTATCCGTCACGTGACTGCACCTGCGCGCACGGCCCGCACACTGGGCCCGGCGGCTTGTAGCCTGGGTGGGGCCAAGGCACGGCGGCTCCGATCGAAGAGCCATATTCCCTGGAGACTCCGTGGACGAGCACGCAGGCGGCCCCGGTGCGGTCACCGGACCGCAGCCGGAGGCGGGGAAGCCGATCGTCGGCCGGGACGCGGAGCTGGCACGCCTGTTTCG (double strand) [Psbi_00827] | binds |
| GCGAACGGATCGCCTCCACCAGCACCGGTACATCGGTGCACACCAACTCGACCTCTTCGGCGGGAAGTCGCGTCTGGTCCAGGATCACCAGCACGGGACCTTCCGGCGGTTCCTCCCAGCACAGGGCGAGCGCGGCGGGCGATACGTCGGCGCCCCGGTCCACTGAGTGCTGATCAGCCATTGGTCCAGTCTGCCCTCTGCGGCCCCAAGTATTGAAGGCCCCGGCGTTGGAGGCCCCAAGTATTGAAGCGCCCGCCACGCCCGACGCCCACCGTCCGGCCATGTTCACCGTGGCACGATGACTGCCAACCTGCCGCCGCCGCGCACTCGCGACAGCCCGGCGGCCGCCCTTCGCCCTTATGGGACCGACCTTACGGAGCAACGATGAATGACTCTCCGGGCTGGGCACCGCCCGGACCGTCCCCCACCGACGAACCGCGCCACCACCCCCAGCCGCCAGACGCCCCGGCCGACCAGGCCGCACAGGGCCAGGGCCCTGTCCTGCCCGACCAGCCCGGGCCGGACCGCCCCACGGCGAACAGCCCCACGGCGGAGGGCCCAGCGGCGGATCAGGTGGCGGCGGACCGACCCTCATGGGGCGCGAAGTGGGCGGAGCGGCAACCACCTGCGGGGCACTGGACGGCACACCCCGGCGACGCACCCGCGCCACCACCCGCCCCGCCGACGGGCCCGGCGGGGCCGGGCGGTCCAGCAGGCCCTGCCTCGTACGGAAGTTGGGGGGCCGGCTGGACTCAGCCGCCGCCCGTACCCCGGCCCGGTGTCATCCCGCTACGGCCCCTGAGCGTCGGCGAAATCCTCGACGGGGCGGTGTCCGCCCTGCGCGCCCACTGGCGGCCGGTGCTCGGCGTGTCCCTTGCCGTCGCCCTCGTCACCCATGCCGTGACCACGGCCGCCACGGGACTGTGGTTCCGGGACACGAGCGGGCTCGACTCGCTTGAGAACGACCCGAATCC (double strand) [Psbi_06494/5] | binds |
| GCGCCAGGCGAGATGGACGGCGCTGTCGAGCACCGGCCATGCGCCGCTGGCCAAAAGCGCGGCGAATTCGCTCCAGCCGTGATCGTGGAGCGCGTTGTACGTGATGATCGGGGCCACGACGTTGAGGGCGATGGTGACAGCCCAGCCGAGGACGGCGGCGCCCCTGGACCGGGCGGGCGGCACCGGGCGTTCGTCCGGCCGTGCCGGCCGTGTGTCGGGCCGCGCCGGCGGCGTGTTGGGTGCGCCCTGTGCGGTGGTGTCCTGACCAGTCACGGTTCCCCCCGTAAGACGTGCTCGATGGTGCGGGAAGAAGACTAGTACAGGGGGGGACGGGAGCGCGGCGGGCGCCAGTATCGGTTCGCGCTGTCCGGTCCTGCGGCACTTCCCGTCGGCTTTTGTTGAAATTCCCCTCACAGCGCATCCGGCTAATGCGCCAACGTAATCGCTTTGCTTCTTCGGGAAACCCCAGCAAAATGGCGGTCATTGGGCTCATCCTGTAAGGAGCACTGGTTTGCATTTCAGCGTATTGGGTCCGCTTCAGGTGCTTTCACTCGACCGGCCCGTCACCATTGGCGGCCCGAAGCAGCACGTACTGCTCGCGCTGCTGCTCGCTCGTTCCG (double strand) [Psbi_09158] | binds |
| GGCAGGACGGCGTTCTCGCCCGCGCGCAGCAGGCGCCAGAACGCCTCGGGATCGGGTGCGCCGGGCAGCCGGCAGGCCAGCCCCACGATCGCGACGGGAGACGTCGCCTGCTGCGCGTGGCTCGGGCTGCTCCCGGCCATGACACCCCCATACCTGAATCGCAAAACCGCTGGTTATGGCTTACGAGATGCCCCGAACAGCGCTCATTCTCCGAATGATTTCTAAAGTTGATCTAACCGAGAATGTCTAGGGAGCGCCTTGTATACGCCGGGCGAAACTTGCCCCGGTGATCCTTCGGATCGAACTGGTGACCTGGGGGGATCGCTACCGAAACTGCGGGGTACGGCGACGGTCACTGATCGACGAATCCTGATATGTACCCATCTGGTTGTGGGTCTTTTGACCCTCACACTGGCGCGCGCCGCACGGTTAGGATGCGTTGATGTTGCCCTCTCTGCGATCATTGCTGCTGGTTGTTCGCCCAATGGAGGGGACCGCGGCCCGTGGTGCCGAGCGTAGTTCGGCACCATGAGTCGGTGCAGCCGCCGATCGCAGAGCAACGCCGTCGATCTCCATGGCCGGAAGACCACCTCCCACCTGACTGAAAATCTCACTGGGGGCAATGTTGCAGCCGTGTGAAATGCGCGGATGCGGCTGCGATCTGGCTAAGCTGTTGATGGCGTGGGTAGGCAACGACGCTGAGGTCTGAAGCGCGACCAAAAAGGCTTCCAAAATCGGGGTGAATTTTTCGAATGCTGGCTGAATTCGATCAAAATGGAGAGCCCTCCTGGTTCGACAAGACGCTGGCAACGGGGGGAGTTCGCGTATCATGAGGTACGAGATACTGGGCCCGTTGCGCGTGGTTGACCGATCTTCGGTCACCTCAATCAGCGCCCGGAAGATCGAGGTGCTGCTGGCCGCATTACTCGTGCGGGCCGACGAGGTGGTGAGCAGCGAAGA (double strand) [PnanR1R2 (sbi_08420)] | binds |
